The record followed here is PMC3751843.

The test system of this series is NF-kB p50 + NF-kB p65. Description: EMSA supershift. As to conditions: nuclear extract, IL1B-treated AGS, p50 or p65 antibody in separate reactions, chase with unlabelled probe; Binding buffer, pH and temperature not given; extract storage buffer 10 mM Hepes pH 7.9, 50 mM KCl, 0.2 mM EDTA, 20% glycerol, 0.5 mM PMSF, 0.5 mM DTT; protein in an extract.

Construct, isoform or probe ends are uncertain for at least one entry. Where cells or extracts were used, other partners may take part. At least one verdict rests on a figure or table, not on a statement of the authors.

As for “AGTTGAGGGGACTTTCCCAGGC (double strand) [consensus NFkB probe]”, the binding result is “binds”.
Under “TGACCCCCAGGATATGGTGGG (double strand) [gastrin promoter putative NFkB site probe]” stands “binds”.
